Data as given in PMC13280575, “The PER2:BRCA1:POU2F1(OCT-1) ternary complex represents a multi-component scaffold model for circadian gene regulation”.

Amino acid sequences for entries named in this document (tags omitted). A change or cut given only in a name is not applied to a line headed by its entry.
UniProt P14859: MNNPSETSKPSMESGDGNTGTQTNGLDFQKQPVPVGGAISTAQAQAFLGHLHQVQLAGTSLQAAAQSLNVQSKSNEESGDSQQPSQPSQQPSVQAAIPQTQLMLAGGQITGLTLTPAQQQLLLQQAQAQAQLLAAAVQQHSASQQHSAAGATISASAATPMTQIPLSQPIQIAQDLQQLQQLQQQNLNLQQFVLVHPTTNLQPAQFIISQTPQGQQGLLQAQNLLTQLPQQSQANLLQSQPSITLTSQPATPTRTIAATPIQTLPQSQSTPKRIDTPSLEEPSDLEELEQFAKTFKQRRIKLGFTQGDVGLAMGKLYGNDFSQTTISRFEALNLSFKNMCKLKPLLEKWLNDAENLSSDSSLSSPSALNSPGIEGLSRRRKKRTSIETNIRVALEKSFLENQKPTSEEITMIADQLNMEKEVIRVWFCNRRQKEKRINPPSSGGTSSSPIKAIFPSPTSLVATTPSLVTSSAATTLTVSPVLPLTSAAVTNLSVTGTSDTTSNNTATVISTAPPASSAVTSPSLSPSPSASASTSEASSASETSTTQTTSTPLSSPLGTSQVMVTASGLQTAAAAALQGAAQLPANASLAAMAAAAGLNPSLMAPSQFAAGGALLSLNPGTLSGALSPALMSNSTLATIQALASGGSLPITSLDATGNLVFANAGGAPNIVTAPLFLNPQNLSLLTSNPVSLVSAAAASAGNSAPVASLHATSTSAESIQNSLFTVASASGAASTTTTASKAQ

Assays:
Test in all cases: EMSA
[1] = biological target: T1, POU RQE-AAA triple mutant R299A,Q306A,E330A (Homo sapiens) (UniProt P14859); conditions: 100 ng protein, text: severely impaired or abolished; EMSA: 20 mM HEPES pH 7.9, 2 mM MgCl2, 10% glycerol, 2 mM DTT, 36 ng poly(dI-dC), 20 min room temperature; 5% native gel, 0.5x TBE, 4 C; recombinant protein; protein details: as P1; label: 5'-32P
T1 sequence (looked up, limits assumed): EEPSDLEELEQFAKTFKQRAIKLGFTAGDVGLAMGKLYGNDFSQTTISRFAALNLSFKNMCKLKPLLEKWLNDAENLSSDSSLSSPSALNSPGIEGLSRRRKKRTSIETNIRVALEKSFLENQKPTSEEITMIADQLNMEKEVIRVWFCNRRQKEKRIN

[2] = system: POU2F1 (OCT-1) POU DNA-binding domain, wild type + PER2(683-872); conditions: no super-shifted ternary PER2(683-872):POU:DNA species in either order of addition; EMSA: 20 mM HEPES pH 7.9, 2 mM MgCl2, 10% glycerol, 2 mM DTT, 36 ng poly(dI-dC), 20 min room temperature; 5% native gel, 0.5x TBE, 4 C; recombinant protein; label: 5'-32P
POU Q306A (Homo sapiens) = biological target: T2, POU Q306A (Homo sapiens) (UniProt P14859); conditions: 100 ng protein, text: severely impaired or abolished; EMSA: 20 mM HEPES pH 7.9, 2 mM MgCl2, 10% glycerol, 2 mM DTT, 36 ng poly(dI-dC), 20 min room temperature; 5% native gel, 0.5x TBE, 4 C; recombinant protein; protein details: as P1; label: 5'-32P
T2 sequence (looked up, limits assumed): T1 sequence (looked up, limits assumed) with A20R, A51E

“GCTATGGCCTATGCATATGAAGCCTTTATT (double strand) [ESR1 promoter POU2F1 element probe (-56 to -42)]”: binds more weakly [1]; no binding [2]; binds more weakly (POU Q306A (Homo sapiens)).

Changes are numbered by the printed parent chain. The exact form of at least one protein or probe is not confirmed. For part of these data: A negative result means that nothing was seen under these conditions. For part of these data: A weaker result is weaker than the reference pair of the same experiment. For part of these data: Tags and fusion partners may be left off the protein sequences shown.
